Results taken from publication doi:10.1101/2024.05.23.595484.
Results are given in words; binding and its absence hold for the method and conditions named. For part of these data: Binding seen in cells or lysates may run through a third protein. Some binding calls cover weakened binding; strength is not graded here. For part of these data: Sequences can lack the tags named with a protein.

Amino acid sequences for entries named in this document (tags omitted). Residues count along the entry.
UniProt P06241, residues 82-143: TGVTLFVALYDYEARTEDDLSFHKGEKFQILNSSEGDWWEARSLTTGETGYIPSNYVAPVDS
UniProt P07947: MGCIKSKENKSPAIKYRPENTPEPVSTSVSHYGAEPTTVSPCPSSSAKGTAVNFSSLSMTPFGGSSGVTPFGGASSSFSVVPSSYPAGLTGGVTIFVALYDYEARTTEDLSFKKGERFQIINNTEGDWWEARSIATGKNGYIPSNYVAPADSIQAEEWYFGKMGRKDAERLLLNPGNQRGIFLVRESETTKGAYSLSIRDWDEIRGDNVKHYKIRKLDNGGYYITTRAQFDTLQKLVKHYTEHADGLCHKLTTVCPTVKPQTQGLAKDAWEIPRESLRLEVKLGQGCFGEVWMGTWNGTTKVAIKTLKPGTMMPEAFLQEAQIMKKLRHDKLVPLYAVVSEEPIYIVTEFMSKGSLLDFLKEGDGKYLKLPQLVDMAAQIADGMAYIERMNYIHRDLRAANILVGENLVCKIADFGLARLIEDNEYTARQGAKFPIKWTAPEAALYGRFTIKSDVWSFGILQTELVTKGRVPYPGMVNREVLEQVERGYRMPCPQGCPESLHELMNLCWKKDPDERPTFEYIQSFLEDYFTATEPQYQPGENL

T1: GST fusion of the PLCγ1 SH3 domain (UniProt P19174)
T1 sequence: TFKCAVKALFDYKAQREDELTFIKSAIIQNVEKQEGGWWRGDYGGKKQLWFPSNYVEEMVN


What was measured:
[1] = target: epidermal growth factor receptor (human (endogenous in HEK293T)) (UniProt P00533); assay: co-IP
[2] = target: GST fusion of the FYN SH3 domain (UniProt P06241); assay: peptide or protein array
[3] = target: T1, GST fusion of the PLCγ1 SH3 domain; assay: peptide or protein array

| binding [1] | binding [2] | binding [3] | Molecule |
| --- | --- | --- | --- |
| binds |  |  | YES (from UniProt P07947 1-543) (enzyme) |
|  | binds | binds | GGGGAAPQPHPPPAFSPAFDNL (biotinylated) [PRM-containing HER2 tail sequence peptide, microarray probe] |
